The supplement of paper PMC10849652
Some of the results follow.

Protein sequences, listed by entry. Tags and fused reporters are not part of them. Lines headed by an entry give the natural chain unless they say otherwise; changes in a name come on top.
UniProt P07942: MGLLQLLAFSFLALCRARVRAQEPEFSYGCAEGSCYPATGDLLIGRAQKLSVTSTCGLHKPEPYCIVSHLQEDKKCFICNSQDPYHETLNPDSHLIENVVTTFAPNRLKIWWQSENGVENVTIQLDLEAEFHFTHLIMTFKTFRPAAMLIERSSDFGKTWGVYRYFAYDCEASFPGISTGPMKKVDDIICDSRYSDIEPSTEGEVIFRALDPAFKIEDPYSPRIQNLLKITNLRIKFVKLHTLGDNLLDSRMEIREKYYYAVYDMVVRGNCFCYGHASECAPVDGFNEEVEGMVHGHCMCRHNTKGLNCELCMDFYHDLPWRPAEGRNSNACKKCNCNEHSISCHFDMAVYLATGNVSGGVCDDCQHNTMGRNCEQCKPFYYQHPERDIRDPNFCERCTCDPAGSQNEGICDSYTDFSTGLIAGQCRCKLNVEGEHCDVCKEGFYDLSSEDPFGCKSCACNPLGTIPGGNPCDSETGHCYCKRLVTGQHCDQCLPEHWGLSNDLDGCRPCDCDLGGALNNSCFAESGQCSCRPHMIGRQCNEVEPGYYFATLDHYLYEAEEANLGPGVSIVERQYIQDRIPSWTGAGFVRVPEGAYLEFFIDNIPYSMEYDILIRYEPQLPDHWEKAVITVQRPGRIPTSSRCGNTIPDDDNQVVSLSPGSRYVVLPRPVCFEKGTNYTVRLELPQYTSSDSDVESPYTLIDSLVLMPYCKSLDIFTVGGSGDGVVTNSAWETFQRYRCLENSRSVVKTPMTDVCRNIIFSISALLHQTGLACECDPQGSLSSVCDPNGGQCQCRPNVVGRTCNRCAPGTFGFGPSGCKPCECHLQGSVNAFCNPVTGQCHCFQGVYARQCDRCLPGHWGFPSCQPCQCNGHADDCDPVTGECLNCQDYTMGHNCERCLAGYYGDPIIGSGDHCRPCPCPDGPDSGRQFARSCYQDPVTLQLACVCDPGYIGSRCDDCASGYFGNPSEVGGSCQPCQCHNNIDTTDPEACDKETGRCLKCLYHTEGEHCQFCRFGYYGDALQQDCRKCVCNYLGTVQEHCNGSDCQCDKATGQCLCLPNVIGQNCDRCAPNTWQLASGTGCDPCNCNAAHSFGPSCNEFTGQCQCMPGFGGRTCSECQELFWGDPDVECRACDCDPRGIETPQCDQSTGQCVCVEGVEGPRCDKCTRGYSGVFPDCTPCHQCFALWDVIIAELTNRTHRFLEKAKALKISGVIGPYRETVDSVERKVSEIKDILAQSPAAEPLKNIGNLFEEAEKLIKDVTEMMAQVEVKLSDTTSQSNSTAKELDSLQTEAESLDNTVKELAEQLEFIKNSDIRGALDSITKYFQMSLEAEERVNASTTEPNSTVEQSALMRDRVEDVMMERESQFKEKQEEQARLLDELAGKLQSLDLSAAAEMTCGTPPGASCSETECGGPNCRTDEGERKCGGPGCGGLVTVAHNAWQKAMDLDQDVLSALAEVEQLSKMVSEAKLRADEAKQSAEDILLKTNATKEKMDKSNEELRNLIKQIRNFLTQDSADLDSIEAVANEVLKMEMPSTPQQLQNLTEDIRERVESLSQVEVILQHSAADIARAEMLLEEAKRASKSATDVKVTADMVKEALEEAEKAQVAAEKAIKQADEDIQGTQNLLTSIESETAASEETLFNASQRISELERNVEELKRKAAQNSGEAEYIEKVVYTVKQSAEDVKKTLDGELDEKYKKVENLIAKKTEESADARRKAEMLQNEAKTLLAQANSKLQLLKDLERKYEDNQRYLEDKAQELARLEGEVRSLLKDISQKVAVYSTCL
UniProt Q71RC2, whole entry, looked up: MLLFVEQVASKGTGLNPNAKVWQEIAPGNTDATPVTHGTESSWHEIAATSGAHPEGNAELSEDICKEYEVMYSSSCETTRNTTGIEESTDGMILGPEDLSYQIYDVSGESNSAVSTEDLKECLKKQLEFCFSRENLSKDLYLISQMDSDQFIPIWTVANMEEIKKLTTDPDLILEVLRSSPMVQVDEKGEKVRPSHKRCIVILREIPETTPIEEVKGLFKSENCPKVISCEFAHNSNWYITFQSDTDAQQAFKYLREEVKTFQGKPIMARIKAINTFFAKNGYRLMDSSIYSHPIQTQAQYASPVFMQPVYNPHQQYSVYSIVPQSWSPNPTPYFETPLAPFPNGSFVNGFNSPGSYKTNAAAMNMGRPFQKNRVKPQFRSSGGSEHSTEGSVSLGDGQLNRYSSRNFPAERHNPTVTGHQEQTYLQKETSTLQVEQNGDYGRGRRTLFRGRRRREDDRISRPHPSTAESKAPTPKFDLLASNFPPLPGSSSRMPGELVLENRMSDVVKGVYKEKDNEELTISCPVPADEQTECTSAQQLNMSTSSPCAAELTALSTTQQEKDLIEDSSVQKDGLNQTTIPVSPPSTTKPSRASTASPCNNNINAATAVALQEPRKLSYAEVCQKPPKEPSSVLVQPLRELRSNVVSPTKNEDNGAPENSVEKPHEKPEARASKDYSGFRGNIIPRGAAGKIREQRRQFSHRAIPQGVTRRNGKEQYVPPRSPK
UniProt P02545: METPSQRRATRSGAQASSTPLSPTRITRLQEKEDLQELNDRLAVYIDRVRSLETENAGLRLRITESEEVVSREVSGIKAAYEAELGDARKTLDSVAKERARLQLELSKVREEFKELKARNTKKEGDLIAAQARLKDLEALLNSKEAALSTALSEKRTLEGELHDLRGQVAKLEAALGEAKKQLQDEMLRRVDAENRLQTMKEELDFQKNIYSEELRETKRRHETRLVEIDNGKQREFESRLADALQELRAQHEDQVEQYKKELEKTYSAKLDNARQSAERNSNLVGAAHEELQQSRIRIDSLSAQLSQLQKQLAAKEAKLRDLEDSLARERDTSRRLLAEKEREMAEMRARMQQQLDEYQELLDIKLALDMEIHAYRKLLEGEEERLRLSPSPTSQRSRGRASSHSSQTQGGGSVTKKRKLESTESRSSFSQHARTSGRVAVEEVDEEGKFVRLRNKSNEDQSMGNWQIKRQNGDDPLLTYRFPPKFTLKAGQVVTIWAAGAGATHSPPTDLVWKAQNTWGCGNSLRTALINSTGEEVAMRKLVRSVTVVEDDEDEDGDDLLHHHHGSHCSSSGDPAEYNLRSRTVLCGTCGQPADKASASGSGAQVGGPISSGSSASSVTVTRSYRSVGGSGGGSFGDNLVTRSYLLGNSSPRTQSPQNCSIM
UniProt Q96AG4: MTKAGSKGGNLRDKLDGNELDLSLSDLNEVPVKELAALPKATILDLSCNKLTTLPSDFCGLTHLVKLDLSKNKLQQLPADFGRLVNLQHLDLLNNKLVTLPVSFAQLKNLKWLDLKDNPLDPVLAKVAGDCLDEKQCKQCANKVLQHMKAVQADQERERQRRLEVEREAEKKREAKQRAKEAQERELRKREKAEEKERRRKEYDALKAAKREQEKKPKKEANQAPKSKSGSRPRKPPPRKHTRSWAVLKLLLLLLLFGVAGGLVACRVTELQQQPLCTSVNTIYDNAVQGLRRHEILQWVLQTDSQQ
UniProt Q03252: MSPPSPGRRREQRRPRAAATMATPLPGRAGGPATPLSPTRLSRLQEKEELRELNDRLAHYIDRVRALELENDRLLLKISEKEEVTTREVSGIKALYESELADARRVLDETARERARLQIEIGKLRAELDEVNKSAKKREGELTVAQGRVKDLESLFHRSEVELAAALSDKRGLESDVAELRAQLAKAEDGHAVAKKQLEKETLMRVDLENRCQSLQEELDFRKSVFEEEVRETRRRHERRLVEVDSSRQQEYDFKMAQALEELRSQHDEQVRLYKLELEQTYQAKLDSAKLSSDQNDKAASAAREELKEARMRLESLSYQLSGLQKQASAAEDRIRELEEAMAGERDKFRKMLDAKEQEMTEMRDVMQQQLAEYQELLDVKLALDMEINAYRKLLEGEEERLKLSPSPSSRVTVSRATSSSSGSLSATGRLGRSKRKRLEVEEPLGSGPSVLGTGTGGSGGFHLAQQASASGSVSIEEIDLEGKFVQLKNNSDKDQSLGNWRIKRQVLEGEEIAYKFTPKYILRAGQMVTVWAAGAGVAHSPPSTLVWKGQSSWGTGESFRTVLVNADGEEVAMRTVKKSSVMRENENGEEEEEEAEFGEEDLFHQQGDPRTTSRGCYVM
UniProt Q14739: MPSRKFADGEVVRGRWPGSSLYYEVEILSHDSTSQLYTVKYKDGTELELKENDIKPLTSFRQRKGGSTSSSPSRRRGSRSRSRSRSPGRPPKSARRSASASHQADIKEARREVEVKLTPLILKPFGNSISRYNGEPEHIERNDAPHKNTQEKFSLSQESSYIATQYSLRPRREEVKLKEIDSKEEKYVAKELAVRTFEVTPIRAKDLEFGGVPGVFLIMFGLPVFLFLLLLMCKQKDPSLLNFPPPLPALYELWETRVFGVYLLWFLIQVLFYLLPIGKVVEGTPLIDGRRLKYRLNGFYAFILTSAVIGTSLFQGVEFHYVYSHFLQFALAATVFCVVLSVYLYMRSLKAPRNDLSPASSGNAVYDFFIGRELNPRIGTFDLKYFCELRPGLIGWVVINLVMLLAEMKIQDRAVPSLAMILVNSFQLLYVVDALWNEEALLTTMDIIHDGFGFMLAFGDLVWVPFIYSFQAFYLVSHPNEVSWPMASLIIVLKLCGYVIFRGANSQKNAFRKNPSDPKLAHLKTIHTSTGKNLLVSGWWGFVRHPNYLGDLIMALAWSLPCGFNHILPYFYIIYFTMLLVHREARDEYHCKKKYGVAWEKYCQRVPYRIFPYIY
UniProt P49257: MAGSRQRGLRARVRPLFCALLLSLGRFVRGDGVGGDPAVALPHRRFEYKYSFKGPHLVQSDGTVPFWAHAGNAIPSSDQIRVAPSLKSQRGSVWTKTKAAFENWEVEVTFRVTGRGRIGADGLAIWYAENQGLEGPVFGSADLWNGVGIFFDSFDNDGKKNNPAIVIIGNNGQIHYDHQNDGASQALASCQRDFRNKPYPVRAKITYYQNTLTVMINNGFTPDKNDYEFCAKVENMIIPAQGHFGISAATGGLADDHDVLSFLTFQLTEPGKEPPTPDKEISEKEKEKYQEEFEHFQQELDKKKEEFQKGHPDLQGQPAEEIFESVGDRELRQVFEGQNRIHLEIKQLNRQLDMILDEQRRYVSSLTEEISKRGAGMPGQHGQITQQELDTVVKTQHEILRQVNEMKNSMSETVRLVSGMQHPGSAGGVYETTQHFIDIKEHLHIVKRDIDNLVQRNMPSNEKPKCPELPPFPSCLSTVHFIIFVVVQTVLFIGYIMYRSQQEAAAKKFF
UniProt Q8TCA0: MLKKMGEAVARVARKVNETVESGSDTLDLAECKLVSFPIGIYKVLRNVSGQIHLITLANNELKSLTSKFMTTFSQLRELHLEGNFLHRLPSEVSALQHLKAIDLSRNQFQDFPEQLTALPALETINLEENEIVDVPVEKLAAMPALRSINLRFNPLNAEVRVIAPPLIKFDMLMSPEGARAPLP
UniProt P53671: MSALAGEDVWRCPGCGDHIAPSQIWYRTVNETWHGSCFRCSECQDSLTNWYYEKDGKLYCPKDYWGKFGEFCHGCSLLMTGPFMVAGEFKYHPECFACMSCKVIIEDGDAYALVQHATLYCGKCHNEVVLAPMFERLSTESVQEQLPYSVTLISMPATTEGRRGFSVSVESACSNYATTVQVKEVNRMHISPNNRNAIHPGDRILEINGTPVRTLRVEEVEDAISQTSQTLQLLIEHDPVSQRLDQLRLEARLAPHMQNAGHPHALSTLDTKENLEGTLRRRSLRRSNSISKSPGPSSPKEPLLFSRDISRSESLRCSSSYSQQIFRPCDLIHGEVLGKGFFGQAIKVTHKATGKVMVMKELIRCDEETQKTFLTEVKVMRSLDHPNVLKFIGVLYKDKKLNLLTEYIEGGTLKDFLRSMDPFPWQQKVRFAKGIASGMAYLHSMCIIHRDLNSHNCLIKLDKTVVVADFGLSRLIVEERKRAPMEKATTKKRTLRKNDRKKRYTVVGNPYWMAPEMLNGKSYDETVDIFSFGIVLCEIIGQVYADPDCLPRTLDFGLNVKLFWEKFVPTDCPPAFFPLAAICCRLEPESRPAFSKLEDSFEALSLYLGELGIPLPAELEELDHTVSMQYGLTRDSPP
UniProt Q14657: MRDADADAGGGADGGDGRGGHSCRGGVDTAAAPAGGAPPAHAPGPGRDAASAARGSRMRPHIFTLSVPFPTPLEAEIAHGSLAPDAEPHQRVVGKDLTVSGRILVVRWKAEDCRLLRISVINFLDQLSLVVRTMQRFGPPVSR
UniProt Q9UIC8: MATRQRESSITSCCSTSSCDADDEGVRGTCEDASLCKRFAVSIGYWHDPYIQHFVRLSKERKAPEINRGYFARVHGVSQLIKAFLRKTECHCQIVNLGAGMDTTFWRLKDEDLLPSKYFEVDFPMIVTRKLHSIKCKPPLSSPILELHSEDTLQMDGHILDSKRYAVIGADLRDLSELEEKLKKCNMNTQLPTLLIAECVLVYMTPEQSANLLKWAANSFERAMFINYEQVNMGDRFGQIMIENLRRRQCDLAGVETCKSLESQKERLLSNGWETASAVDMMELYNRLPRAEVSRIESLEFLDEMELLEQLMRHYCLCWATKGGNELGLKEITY

Legend:
Assay in all cases: log2 fold change, soluble protein after heating vs DMSO (PISA); higher = thermal stabilisation; K562 cells, 10 uM, 30 min; active = over 0.2 and 3.5 SD of the protein, either way, in both replicates (recomputed)
bafetinib = compound: Cc1ccc(NC(=O)c2ccc(CN3CC[C@H](N(C)C)C3)c(C(F)(F)F)c2)cc1Nc1nccc(-c2cncnc2)n1 [bafetinib]
Summary of the method: (§1)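 Thermal stability values are relative to control samples and come from duplicates. They are expressed as log2 fold changes. For measurement, K562 cells (2×10^6 cells/mL) received 10 μM compound for 30 min, and aliquots were heated for 3 min over 48°C-58°C, pooled, and extracted at 4°C in PBS with 0.5% NP-40. Soluble protein, the supernatant after 21,000xg for 90 min, was quantified by TMTpro 16plex LC-MS/MS with equalised channel sums.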

[1] = compound: Cc1cccc(CC(=O)N2CCc3c2ccc(-c2cn(C)c4ncnc(N)c24)c3F)n1
Summary of the method: as §1

nilotinib = compound: Cc1cn(-c2cc(NC(=O)c3ccc(C)c(Nc4nccc(-c5cccnc5)n4)c3)cc(C(F)(F)F)c2)cn1 [nilotinib]
Summary of the method: as §1

[2] = compound: Cc1nc(Nc2n[nH]c3c2CN(C(=O)N[C@H](CN(C)C)c2ccccc2)C3(C)C)c2sccc2n1
Summary of the method: as §1

dasatinib = compound: Cc1nc(Nc2ncc(C(=O)Nc3c(C)cccc3Cl)s2)cc(N2CCN(CCO)CC2)n1 [dasatinib]
Summary of the method: as §1

[3] = compound: Cc1ncc(-c2ccnc(Nc3ccc(S(C)(=O)=O)cc3)n2)n1C(C)C
Summary of the method: as §1

[4] = compound: Cn1cc(-c2ccc3c(c2)CCN3C(=O)Cc2cccc(C(F)(F)F)c2)c2c(N)ncnc21
Summary of the method: as §1

[5] = compound: Cn1cc(-c2ccc3nnc(C(F)(F)c4ccc5ncccc5c4)n3n2)cn1
Summary of the method: as §1

tipifarnib = compound: Cn1cncc1[C@@](N)(c1ccc(Cl)cc1)c1ccc2c(c1)c(-c1cccc(Cl)c1)cc(=O)n2C [tipifarnib]
Summary of the method: as §1

mubritinib = compound: FC(F)(F)c1ccc(/C=C/c2nc(COc3ccc(CCCCn4ccnn4)cc3)co2)cc1 [mubritinib]
Summary of the method: as §1

Target	log2 fold change (bafetinib)	log2 fold change [1]	log2 fold change (nilotinib)	log2 fold change [2]	log2 fold change (dasatinib)	log2 fold change [3]	log2 fold change [4]	log2 fold change [5]	log2 fold change (tipifarnib)	log2 fold change (mubritinib)
LEMD3 (UniProt Q9Y2U8)	inactive: -0.171	inactive: -0.114	inactive: -0.127	inactive: -0.026	inactive: -0.106	inactive: 0.037	inactive: 0.163	inactive: 0.049	inactive: -0.008	inactive: 0.001
LAMB1 (UniProt P07942)	inactive: -0.076	inactive: -0.02	inactive: -0.004	inactive: 0.021	inactive: -0.056	inactive: -0.048	inactive: -0.032	inactive: -0.061	inactive: 0.051	inactive: -0.04
LRIG2 (UniProt O94898)	inactive: -0.022	inactive: -0.142	inactive: -0.077	inactive: -0.145	inactive: -0.032	inactive: 0.224	inactive: 0.01	inactive: -0.005	inactive: 0.057	inactive: -0.178
LARP4 isoform 4 (UniProt Q71RC2)	inactive: 0.022	inactive: -0.027	inactive: -0.073	inactive: -0.147	inactive: 0	inactive: -0.028	inactive: -0.078	inactive: -0.103	inactive: 0.071	inactive: -0.046
LMNA (UniProt P02545)	inactive: -0.011	inactive: -0.025	inactive: 0.065	inactive: -0.116	inactive: 0.097	inactive: -0.179	inactive: -0.04	inactive: -0.043	inactive: 0.064	inactive: -0.069
LMAN2 (UniProt Q12907)	inactive: -0.072	inactive: 0	inactive: -0.008	inactive: 0.008	inactive: -0.025	inactive: -0.004	inactive: 0.017	inactive: 0.041	inactive: 0.027	inactive: 0
L2HGDH (UniProt Q9H9P8)	inactive: -0.089	inactive: -0.037	inactive: 0.06	inactive: 0.002	inactive: -0.046	inactive: -0.002	inactive: 0.077	inactive: 0.053	inactive: 0.021	inactive: 0.061
LRRC59 (UniProt Q96AG4)	inactive: 0.016	inactive: -0.004	inactive: -0.035	inactive: 0.032	inactive: 0.028	inactive: -0.019	inactive: 0.011	inactive: 0.008	inactive: -0.01	inactive: -0.004
LNPK (UniProt Q9C0E8)	inactive: -0.081	inactive: -0.035	inactive: -0.001	inactive: -0.009	inactive: 0.052	inactive: -0.007	inactive: 0.025	inactive: 0.011	inactive: 0.054	inactive: 0.072
LMNB2 (UniProt Q03252)	inactive: -0.067	inactive: -0.078	inactive: 0.022	inactive: -0.077	inactive: 0.101	inactive: -0.158	inactive: 0.015	inactive: -0.007	inactive: 0.166	inactive: -0.043
LRRC47 (UniProt Q8N1G4)	inactive: 0.016	inactive: -0.001	inactive: 0.002	inactive: 0.018	inactive: -0.044	inactive: 0.013	inactive: 0.048	inactive: 0.03	inactive: -0.066	inactive: 0.04
LRBA, A0A494BZW2	inactive: -0.041	inactive: 0.044	inactive: 0.019	inactive: -0.016	inactive: -0.144	inactive: 0.053	inactive: -0.076	inactive: 0.123	inactive: -0.26	inactive: -0.03
LETM1 (UniProt O95202)	inactive: -0.132	inactive: 0.021	inactive: -0.002	inactive: -0.011	inactive: -0.022	inactive: 0	inactive: 0.042	inactive: 0.018	inactive: 0.01	inactive: -0.04
LBR (UniProt Q14739)	inactive: 0.113	inactive: 0.101	inactive: -0.201	inactive: -0.007	inactive: -0.017	inactive: -0.018	inactive: 0.041	inactive: 0.012	inactive: -0.141	inactive: 0.026
LIMD1 (UniProt Q9UGP4)	inactive: -0.143	inactive: 0.017	inactive: 0.023	inactive: -0.085	inactive: 0.001	inactive: -0.008	inactive: 0.021	inactive: -0.015	inactive: -0.071	inactive: 0.012
LPCAT3 (UniProt Q6P1A2)	inactive: 0.108	inactive: 0.063	inactive: 0.044	inactive: 0	inactive: 0.051	active: 0.363	inactive: 0.153	inactive: -0.015	inactive: -0.216	inactive: 0.034
LMAN2L isoform 2 (UniProt Q9H0V9)	inactive: -0.042	inactive: 0.018	inactive: -0.006	inactive: 0.028	inactive: 0.017	inactive: -0.012	inactive: 0.016	inactive: 0.015	inactive: 0.006	inactive: 0.048
LAMP2 (UniProt P13473)	inactive: -0.124	inactive: -0.051	inactive: 0.002	inactive: -0.014	inactive: 0.017	inactive: 0.014	inactive: 0.048	inactive: 0.035	inactive: 0.14	inactive: 0.017
LMAN1 (UniProt P49257)	inactive: -0.096	inactive: 0.006	inactive: -0.035	inactive: 0.01	inactive: -0.013	inactive: -0.044	inactive: -0.033	inactive: 0.045	inactive: -0.031	inactive: -0.002
LDHA isoform 3 (UniProt P00338)	inactive: 0.024	inactive: -0.026	inactive: 0.031	inactive: 0.006	inactive: 0.002	inactive: 0.014	inactive: 0.01	inactive: 0.024	inactive: -0.036	inactive: 0.018
LGALS1 (UniProt P09382)	inactive: 0.017	inactive: 0.066	inactive: -0.005	inactive: 0.013	inactive: 0.057	inactive: 0.002	inactive: 0.08	inactive: 0.038	inactive: -0.018	inactive: 0.022
LRRC20 (UniProt Q8TCA0)	inactive: -0.01	inactive: 0.025	inactive: -0.012	inactive: -0.042	inactive: -0.006	inactive: -0.027	inactive: 0.028	inactive: 0.145	inactive: -0.023	inactive: 0.035
LONP2 (UniProt Q86WA8)	inactive: -0.037	inactive: -0.054	inactive: 0.26	inactive: -0.187	inactive: 0.024	inactive: -0.065	inactive: 0.055	inactive: -0.131	inactive: 0.012	inactive: 0.063
LPCAT1 (UniProt Q8NF37)	inactive: -0.073	inactive: 0.054	inactive: -0.063	inactive: -0.008	inactive: -0.053	inactive: -0.026	inactive: 0.048	inactive: 0.02	inactive: 0.022	inactive: 0.025
LIMK2 isoform 3 (UniProt P53671)	inactive: -0.161	inactive: -0.106	inactive: -0.182	inactive: 0.025	inactive: 0.168	inactive: -0.114	inactive: -0.228	inactive: -0.02	inactive: 0.198	inactive: -0.01
LAGE3 (UniProt Q14657)	inactive: -0.078	inactive: -0.181	inactive: 0.023	inactive: -0.04	inactive: 0.058	inactive: -0.017	inactive: 0.017	inactive: 0.094	inactive: 0.002	inactive: 0.081
LARS2 (UniProt Q15031)	inactive: -0.07	inactive: 0	inactive: 0.004	inactive: -0.01	inactive: -0.064	inactive: 0.008	inactive: 0.034	inactive: 0.009	inactive: -0.085	inactive: -0.102
LCLAT1 (UniProt Q6UWP7)	inactive: -0.042	inactive: 0	inactive: -0.083	inactive: 0.058	inactive: 0.081	inactive: -0.066	inactive: 0.012	inactive: 0.056	inactive: 0.006	inactive: 0.021
LCMT1 (UniProt Q9UIC8)	inactive: -0.021	inactive: 0.068	inactive: -0.007	inactive: -0.001	inactive: -0.026	inactive: -0.028	inactive: 0.068	inactive: 0.008	inactive: -0.015	inactive: 0.088
LDHB (UniProt P07195)	inactive: 0.01	inactive: 0.035	inactive: 0.015	inactive: 0.017	inactive: 0.025	inactive: 0	inactive: 0.021	inactive: -0.004	inactive: -0.019	inactive: 0.059

Limited to log2 fold change (tipifarnib) and log2 fold change [3] (two entries from above):

| Target | log2 fold change (tipifarnib) | log2 fold change [3] |
| --- | --- | --- |
| LCMT1 (UniProt Q9UIC8) | inactive: -0.015 | inactive: -0.028 |
| LDHB (UniProt P07195) | inactive: -0.019 | inactive: 0 |
